Laboratory results published in US20250101108A1, “METHODS TO ENHANCE THERAPEUTIC EFFICACY IN MELANOMA VIA MODULATION OF CELL SURFACE PD-L1/L2” (THE REGENTS OF THE UNIVERSITY OF CALIFORNIA, priority 2021, published 2025).
No constants are given. Whether binding was seen depends on the method and setting. Binding seen in cells or lysates may run through a third protein. These calls come from enrichment with a bait or labelling near it, and not all partners need be listed.

Protein sequences, listed by entry. Tags and fused reporters are not part of them. Residues count along the entry.
UniProt Q9NZQ7, residues 19-290: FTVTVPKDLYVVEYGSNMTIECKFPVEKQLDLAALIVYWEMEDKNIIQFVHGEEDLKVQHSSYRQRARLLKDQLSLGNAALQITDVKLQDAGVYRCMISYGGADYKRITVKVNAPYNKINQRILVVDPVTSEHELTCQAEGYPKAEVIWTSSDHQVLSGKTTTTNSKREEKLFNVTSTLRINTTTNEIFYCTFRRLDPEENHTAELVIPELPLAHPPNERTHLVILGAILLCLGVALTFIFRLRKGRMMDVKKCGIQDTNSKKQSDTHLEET
UniProt Q9BQ51, residues 20-273: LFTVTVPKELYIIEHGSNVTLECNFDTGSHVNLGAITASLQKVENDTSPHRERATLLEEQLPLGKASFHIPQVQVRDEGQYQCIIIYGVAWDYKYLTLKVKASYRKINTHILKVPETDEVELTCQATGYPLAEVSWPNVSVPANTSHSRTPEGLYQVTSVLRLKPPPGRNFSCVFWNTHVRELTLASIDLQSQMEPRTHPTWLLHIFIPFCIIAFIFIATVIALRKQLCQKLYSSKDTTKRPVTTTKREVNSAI
UniProt Q96J02, residues 2-903: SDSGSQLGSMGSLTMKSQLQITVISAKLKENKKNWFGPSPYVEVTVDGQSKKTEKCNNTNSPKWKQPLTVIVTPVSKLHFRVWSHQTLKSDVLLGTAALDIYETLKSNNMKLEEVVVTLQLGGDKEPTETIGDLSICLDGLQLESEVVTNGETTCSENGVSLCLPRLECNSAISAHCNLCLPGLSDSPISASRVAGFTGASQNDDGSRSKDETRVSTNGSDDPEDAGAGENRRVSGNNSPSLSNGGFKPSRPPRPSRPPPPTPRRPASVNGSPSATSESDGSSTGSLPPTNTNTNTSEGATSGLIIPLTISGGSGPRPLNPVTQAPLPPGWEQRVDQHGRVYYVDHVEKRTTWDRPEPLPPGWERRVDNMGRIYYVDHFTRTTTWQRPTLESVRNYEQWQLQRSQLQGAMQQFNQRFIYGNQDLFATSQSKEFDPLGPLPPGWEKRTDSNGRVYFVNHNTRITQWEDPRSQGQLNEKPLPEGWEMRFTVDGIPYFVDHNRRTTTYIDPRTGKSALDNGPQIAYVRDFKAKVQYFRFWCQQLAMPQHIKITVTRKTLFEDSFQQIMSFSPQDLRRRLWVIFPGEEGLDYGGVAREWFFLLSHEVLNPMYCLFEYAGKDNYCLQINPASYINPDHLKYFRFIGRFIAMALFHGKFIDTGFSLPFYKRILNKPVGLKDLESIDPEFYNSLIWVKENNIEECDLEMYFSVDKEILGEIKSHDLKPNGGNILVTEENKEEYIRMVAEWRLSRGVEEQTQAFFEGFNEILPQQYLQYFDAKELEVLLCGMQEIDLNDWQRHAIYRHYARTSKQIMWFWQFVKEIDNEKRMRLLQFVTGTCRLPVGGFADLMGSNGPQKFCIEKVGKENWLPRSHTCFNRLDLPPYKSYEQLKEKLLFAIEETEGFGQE

What was measured:
PD-L1 (human) [1] = target: PD-L1 (human) (UniProt Q9NZQ7); assay: summary sentence of Example 1 (co-immunoprecipitation, proximity labelling)
PD-L1 (human) [2] = target: PD-L1 (human) (UniProt Q9NZQ7); assay: IP-MS, proximity labelling and co-immunoprecipitation (FIGS. 1A-1F)
PD-L2-FLAG (human) = PD-L2-FLAG (human) (UniProt Q9BQ51); assay: anti-FLAG immunoprecipitation and mass spectrometry, M229 R5 cells expressing PD-L2-FLAG

- binding (PD-L1 (human) [1]): binds
- binding (PD-L1 (human) [2]): binds
- binding (PD-L2-FLAG (human)): binds
Substance: E3 ligase ITCH (from UniProt Q96J02 2-903) (enzyme)
